Measurements as given in the supplement of paper PMC7666118.
Some of the results follow.

By UniProt entry, the sequences of proteins in these tests, tags left out. Where a name states a change or a piece, a line headed by the entry shows the natural chain unless it says otherwise.
UniProt P54277: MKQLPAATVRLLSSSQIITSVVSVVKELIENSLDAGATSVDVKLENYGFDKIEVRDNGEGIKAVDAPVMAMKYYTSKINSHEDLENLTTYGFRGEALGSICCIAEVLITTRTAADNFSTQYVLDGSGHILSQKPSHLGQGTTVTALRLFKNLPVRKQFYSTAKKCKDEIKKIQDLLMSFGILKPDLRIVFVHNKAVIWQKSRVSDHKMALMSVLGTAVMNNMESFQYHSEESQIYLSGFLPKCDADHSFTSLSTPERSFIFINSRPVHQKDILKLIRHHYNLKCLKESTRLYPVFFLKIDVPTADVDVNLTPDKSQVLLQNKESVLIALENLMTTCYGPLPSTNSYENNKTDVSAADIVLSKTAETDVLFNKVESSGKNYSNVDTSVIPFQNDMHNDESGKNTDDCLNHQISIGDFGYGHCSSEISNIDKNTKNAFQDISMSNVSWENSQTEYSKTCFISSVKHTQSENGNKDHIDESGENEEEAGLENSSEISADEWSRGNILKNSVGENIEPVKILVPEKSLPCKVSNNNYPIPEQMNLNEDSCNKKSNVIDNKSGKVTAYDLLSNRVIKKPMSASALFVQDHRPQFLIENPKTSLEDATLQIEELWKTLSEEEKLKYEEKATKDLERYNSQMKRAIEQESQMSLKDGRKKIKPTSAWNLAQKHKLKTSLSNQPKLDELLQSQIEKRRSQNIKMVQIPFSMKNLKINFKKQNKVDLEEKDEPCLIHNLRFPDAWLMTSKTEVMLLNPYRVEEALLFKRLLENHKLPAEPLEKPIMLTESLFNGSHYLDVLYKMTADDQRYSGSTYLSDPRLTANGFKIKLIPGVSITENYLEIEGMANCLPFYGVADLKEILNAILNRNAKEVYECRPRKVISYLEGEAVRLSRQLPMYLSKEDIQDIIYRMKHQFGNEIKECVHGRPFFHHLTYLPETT
UniProt Q58EX7: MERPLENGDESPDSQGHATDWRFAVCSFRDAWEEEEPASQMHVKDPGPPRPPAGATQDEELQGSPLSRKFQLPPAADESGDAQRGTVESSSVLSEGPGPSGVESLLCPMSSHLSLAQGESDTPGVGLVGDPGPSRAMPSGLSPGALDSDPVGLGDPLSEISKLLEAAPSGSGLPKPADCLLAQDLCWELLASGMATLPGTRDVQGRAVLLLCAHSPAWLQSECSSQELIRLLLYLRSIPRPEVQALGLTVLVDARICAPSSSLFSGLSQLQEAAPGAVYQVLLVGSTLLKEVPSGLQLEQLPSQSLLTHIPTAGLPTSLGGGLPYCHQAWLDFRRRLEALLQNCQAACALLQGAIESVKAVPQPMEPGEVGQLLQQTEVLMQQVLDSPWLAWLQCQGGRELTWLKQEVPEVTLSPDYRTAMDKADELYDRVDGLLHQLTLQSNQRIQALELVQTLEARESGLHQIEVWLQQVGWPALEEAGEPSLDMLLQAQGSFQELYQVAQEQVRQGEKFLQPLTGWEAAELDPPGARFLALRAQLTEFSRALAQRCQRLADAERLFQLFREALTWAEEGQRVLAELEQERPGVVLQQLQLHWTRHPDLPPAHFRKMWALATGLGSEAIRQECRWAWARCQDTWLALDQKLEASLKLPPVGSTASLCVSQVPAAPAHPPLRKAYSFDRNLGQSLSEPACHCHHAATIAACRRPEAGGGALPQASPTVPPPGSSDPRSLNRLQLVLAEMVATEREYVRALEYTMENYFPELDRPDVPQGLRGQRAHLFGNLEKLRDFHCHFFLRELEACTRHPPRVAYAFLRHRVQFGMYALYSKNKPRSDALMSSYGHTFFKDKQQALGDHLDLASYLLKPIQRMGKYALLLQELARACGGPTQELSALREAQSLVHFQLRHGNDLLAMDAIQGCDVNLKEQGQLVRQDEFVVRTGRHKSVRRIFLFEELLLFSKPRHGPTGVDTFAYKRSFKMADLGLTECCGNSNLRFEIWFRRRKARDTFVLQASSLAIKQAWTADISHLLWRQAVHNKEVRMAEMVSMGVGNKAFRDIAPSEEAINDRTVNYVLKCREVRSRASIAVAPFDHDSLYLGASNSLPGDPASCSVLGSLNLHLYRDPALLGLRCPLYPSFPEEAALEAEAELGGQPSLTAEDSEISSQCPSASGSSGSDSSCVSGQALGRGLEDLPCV
UniProt Q14181: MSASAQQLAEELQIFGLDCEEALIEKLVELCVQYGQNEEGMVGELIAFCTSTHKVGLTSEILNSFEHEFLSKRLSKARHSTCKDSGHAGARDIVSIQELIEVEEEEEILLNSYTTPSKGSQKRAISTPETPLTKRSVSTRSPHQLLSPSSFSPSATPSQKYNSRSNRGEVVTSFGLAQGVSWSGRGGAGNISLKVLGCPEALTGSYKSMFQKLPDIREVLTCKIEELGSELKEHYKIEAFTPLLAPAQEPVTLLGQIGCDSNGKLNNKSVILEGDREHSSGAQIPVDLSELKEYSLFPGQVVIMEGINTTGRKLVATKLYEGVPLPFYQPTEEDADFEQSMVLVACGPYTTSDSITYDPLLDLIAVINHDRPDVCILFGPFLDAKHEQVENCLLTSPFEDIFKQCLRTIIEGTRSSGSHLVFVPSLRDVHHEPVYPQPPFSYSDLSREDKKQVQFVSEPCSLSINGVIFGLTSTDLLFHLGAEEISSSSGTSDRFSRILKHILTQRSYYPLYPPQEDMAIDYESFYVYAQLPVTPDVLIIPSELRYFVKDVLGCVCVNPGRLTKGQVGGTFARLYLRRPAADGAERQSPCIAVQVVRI
UniProt P30041: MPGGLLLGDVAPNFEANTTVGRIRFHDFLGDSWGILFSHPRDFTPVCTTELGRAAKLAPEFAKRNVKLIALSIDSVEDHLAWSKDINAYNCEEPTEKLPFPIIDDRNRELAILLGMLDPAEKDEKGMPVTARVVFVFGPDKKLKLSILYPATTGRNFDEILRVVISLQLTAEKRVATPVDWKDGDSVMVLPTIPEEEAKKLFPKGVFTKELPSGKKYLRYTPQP
UniProt Q9UIW2: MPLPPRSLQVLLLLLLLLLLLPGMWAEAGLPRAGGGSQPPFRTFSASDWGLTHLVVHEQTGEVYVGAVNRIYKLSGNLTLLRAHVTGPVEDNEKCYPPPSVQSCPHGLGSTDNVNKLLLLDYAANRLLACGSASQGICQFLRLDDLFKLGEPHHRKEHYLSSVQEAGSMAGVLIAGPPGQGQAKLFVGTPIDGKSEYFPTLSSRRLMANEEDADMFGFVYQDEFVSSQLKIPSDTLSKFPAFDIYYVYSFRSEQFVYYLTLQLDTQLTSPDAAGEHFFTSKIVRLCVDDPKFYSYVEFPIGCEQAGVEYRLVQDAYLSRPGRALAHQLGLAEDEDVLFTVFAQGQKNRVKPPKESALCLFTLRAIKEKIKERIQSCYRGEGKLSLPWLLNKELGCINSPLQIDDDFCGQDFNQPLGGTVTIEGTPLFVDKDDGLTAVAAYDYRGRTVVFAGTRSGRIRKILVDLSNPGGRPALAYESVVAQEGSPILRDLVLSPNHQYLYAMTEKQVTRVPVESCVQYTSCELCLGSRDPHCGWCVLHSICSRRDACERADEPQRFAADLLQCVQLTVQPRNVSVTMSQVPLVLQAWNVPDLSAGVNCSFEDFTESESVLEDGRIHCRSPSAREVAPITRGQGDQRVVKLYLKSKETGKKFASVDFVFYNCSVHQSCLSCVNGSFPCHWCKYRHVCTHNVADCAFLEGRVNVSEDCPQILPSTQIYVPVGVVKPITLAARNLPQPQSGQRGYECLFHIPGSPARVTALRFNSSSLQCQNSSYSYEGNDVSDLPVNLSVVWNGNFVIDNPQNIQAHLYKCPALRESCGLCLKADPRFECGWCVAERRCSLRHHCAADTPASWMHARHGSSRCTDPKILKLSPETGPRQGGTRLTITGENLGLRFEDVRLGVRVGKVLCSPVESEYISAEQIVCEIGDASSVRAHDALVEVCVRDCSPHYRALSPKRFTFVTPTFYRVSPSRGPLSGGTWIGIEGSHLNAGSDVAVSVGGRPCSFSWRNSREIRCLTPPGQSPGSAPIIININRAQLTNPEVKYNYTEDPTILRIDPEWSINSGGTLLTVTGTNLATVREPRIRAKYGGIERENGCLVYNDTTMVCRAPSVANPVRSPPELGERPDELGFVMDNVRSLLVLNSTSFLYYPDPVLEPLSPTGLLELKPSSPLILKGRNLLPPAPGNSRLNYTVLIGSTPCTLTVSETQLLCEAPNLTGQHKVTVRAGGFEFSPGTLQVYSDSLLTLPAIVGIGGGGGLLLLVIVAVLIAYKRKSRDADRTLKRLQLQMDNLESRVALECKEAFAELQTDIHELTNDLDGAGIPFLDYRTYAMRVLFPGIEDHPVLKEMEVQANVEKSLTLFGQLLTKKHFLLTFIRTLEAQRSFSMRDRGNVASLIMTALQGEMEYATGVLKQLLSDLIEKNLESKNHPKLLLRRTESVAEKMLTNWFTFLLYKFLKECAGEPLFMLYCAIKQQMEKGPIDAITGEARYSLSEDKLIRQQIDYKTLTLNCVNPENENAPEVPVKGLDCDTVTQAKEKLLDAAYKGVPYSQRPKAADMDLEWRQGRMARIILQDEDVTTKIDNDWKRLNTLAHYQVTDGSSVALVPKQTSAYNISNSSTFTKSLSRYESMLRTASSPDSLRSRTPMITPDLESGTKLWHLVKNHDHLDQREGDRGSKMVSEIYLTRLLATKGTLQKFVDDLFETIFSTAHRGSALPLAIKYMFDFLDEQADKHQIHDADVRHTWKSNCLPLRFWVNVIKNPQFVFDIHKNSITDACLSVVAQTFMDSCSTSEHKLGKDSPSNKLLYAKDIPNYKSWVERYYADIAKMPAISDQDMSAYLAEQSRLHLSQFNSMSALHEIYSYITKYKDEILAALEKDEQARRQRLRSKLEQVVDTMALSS
UniProt Q96CD2: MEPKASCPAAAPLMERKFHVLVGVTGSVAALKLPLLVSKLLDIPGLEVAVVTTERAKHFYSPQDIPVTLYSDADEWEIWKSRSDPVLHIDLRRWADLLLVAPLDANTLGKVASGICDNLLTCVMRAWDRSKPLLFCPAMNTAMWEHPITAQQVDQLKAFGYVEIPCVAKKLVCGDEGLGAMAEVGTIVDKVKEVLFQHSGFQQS
UniProt P63151: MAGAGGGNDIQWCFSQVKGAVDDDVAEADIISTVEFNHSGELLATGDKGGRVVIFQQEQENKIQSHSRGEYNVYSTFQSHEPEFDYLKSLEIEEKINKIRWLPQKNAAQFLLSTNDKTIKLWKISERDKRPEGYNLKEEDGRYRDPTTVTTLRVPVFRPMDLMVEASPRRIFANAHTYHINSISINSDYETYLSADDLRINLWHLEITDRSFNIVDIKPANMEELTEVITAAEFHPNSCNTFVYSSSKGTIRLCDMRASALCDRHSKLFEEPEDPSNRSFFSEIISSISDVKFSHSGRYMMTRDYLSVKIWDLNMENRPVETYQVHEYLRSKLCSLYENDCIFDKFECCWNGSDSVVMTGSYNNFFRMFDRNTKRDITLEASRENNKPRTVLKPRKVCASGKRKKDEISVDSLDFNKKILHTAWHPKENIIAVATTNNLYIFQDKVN
UniProt O94880: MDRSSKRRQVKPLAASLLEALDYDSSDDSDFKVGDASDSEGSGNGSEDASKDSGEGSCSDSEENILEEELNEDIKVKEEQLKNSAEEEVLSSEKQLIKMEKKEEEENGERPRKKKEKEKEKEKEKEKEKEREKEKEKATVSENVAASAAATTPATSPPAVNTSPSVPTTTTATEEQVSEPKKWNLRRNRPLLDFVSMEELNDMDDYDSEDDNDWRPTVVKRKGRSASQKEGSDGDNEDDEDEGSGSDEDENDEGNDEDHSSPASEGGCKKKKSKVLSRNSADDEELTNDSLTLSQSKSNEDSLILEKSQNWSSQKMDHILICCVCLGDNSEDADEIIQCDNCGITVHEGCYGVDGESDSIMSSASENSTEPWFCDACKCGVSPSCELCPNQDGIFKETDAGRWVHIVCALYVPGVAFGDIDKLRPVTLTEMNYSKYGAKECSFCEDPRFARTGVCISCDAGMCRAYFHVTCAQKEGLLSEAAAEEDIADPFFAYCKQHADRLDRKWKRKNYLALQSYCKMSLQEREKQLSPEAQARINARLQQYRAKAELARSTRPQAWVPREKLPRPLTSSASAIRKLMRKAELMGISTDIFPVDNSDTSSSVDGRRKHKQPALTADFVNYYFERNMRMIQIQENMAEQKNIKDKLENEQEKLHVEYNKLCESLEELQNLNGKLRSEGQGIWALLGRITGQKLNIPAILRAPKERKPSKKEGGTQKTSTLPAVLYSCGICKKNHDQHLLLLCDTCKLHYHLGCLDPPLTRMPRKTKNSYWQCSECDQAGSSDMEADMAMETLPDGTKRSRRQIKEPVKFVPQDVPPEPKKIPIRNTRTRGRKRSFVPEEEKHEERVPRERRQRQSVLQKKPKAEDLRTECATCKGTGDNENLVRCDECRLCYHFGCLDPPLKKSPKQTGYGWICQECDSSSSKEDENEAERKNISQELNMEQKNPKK

Each target was assayed with COc1ccc(Cn2ccc3ccc(C(=O)NO)cc32)cc1 (assay: dose-dependent thermal stabilisation call (2D-TPP, DLPTP, 10% FDR) (binary (1 = stabilised)); higher = stabilised by the compound). Details: system: HL-60 intact cells; concentration range 0.04-10 µM.

Target	dose-dependent thermal stabilisation call
PMS1 (UniProt P54277)	inactive: 0
PIK3R2 (UniProt O00459)	inactive: 0
PLEKHG4 (UniProt Q58EX7)	inactive: 0
POLA2 (UniProt Q14181)	inactive: 0
PRDX6 (UniProt P30041)	inactive: 0
PLXNA1 (UniProt Q9UIW2)	inactive: 0
PPCDC (UniProt Q96CD2)	inactive: 0
POMGNT1 (UniProt Q8WZA1)	inactive: 0
PPP2R2A (UniProt P63151)	inactive: 0
PHF14 (UniProt O94880)	inactive: 0
